Measurements: paper doi:10.1101/2024.09.14.613007
These are yes or no findings as the source states them, for the method shown. Binding seen in cells or lysates may run through a third protein. Some entries that bind do so weakly or less than the wild type.

Protein sequences, listed by entry. Tags and fused reporters are not part of them. Lines headed by an entry give the natural chain unless they say otherwise; changes in a name come on top.
UniProt P38936: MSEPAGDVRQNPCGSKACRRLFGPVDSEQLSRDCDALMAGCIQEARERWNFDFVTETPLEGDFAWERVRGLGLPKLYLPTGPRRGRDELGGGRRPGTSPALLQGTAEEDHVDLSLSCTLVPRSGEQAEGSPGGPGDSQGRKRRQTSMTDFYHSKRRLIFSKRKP
UniProt P24385: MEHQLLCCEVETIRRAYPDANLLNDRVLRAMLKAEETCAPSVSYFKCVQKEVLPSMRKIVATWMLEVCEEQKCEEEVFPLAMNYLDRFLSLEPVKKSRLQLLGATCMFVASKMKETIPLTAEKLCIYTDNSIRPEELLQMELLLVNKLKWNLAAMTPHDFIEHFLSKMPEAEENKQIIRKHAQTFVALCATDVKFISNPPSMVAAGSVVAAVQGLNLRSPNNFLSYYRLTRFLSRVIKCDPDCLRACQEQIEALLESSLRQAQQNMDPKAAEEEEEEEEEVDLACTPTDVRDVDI
UniProt P14635: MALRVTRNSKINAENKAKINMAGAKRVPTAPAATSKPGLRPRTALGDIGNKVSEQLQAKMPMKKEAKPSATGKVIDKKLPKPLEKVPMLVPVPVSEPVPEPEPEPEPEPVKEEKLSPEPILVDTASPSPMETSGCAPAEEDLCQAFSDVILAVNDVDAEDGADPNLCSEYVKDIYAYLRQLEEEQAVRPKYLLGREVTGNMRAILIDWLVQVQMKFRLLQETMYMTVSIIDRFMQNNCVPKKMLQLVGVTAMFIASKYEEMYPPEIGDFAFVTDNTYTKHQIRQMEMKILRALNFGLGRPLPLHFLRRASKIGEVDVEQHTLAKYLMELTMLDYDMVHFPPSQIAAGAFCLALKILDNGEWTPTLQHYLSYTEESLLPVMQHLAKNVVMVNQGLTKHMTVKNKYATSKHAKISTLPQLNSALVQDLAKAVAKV

Assays:
[1] = molecular target: p21-GFP WT (endogenous p21 tagged with GFP in RPE-1 cells) (human (endogenous in RPE-1)) (UniProt P38936); experiment: pull-down
[2] = molecular target: p21-GFP C41S (homozygous CRISPR-Cas9 knock-in in RPE-1 p21-GFP cells, clone #1) (human (endogenous in RPE-1)) (UniProt P38936); experiment: pull-down

Question: What does the source list for cyclin D1 (from UniProt P24385 1-295)?
Answer: binding [1]: binds; binding [2]: binds

Question: With cyclin B1 (from UniProt P14635 1-433) as the substance, how does the binding [1] read?
Answer: The binding was “binds”.

Question: What about the binding [2] of the same substance?
Answer: The binding was “binds”.
